Measured data: PubChem BioAssay AID652243 (Drosophila RNAi Screening Center, 2013)

Aim: 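Fly genes required for human androgen receptor driven transcription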 (primary screen)
Cells: Drosophila S2R+ cells
Reagents: long dsRNA against Drosophila genes
Time to read-out: 72 h (48 h, then 24 h hormone)
Challenge: synthetic androgen R1881 at 10 nM for 24 h
Measured: 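Per-well raw luminescence of the androgen-driven firefly reporter and of the Renilla control, two replicates each, without normalisation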
Direction: firefly reporter light: higher = more light from androgen-responsive reporter; Renilla control light: higher = more constitutive control signal (cell number, transfection)
Rule for the call: 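Hit when the log firefly-to-Renilla ratio dropped or increased by a fixed fold versus the mean of GFP or LacZ controls across duplicate plates; lowering cut given as 1.5 and as 3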
Meaning of the calls: active = hit: reporter lowered or raised; inactive = no hit
In all, the deposit lists about 24,000 reagents; this is a random part of those that have a named target and a result. In the full data, 246 (1%) are marked active. 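Plates not normalised; calls are printed but the firefly/Renilla ratio behind them is not deposited; fold cut for lowering reported inconsistently.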 Raw values are not corrected between plates. A plus sign joins genes that one reagent is predicted to hit. Not stated in the record: the amount of reagent.

| Target gene | DRSC id | firefly reporter light, replicate 1 | firefly reporter light, replicate 2 | Renilla control light, replicate 1 | Renilla control light, replicate 2 | activity call |
| --- | --- | --- | --- | --- | --- | --- |
| CG34315 + Orc3 | DRSC07642 | 1.47e6 | 6.60e5 | 1.93e6 | 1.03e6 | inactive |
| CG34315 + Orc3 | DRSC25371 | 5.26e5 | 4.33e5 | 4.04e5 | 3.64e5 | inactive |
| CrebB (Cyclic-AMP response element binding protein B) | DRSC20232 | 1.02e5 | 55505 | 2.13e6 | 1.76e6 | active |
| CrebB (Cyclic-AMP response element binding protein B) | DRSC23558 | 3.09e5 | 2.32e5 | 3.61e5 | 3.51e5 | inactive |
| CG15818 | DRSC02505 | 8.19e5 | 8.23e5 | 2.33e6 | 2.21e6 | inactive |
| CG15818 | DRSC28515 | 3.30e5 | 7.11e5 | 7.38e5 | 1.65e6 | inactive |
| CG11586 | DRSC08203 | 6.68e5 | 7.68e5 | 1.76e6 | 2.11e6 | inactive |
| CG11586 | DRSC27459 | 2.83e5 | 2.55e5 | 7.49e5 | 7.15e5 | inactive |
| CG4194 | DRSC18520 | 61348 | 1.01e5 | 4.92e5 | 4.15e5 | inactive |
| CR18275 + CG13373 | DRSC17900 | 3.45e5 | 2.95e5 | 3.45e6 | 3.12e6 | inactive |
| Tango14 (Transport and Golgi organization 14) | DRSC00667 | 1.14e5 | 72919 | 8.24e5 | 8.00e5 | inactive |
| Tango14 (Transport and Golgi organization 14) | DRSC29882 | 9.24e5 | 9.48e5 | 1.12e6 | 1.37e6 | inactive |
| Glyat (Glycine N-acyltransferase) | DRSC37806 | 6.73e5 | 6.46e5 | 2.15e6 | 2.18e6 | inactive |
| CG1636 | DRSC18111 | 4.78e5 | 4.98e5 | 1.63e6 | 1.94e6 | inactive |
| unk (unkempt) | DRSC17093 | 1.15e5 | 1.25e5 | 9.27e5 | 1.04e6 | inactive |
| unk (unkempt) | DRSC28754 | 4.54e5 | 3.92e5 | 4.03e5 | 4.88e5 | inactive |
| CG13117 | DRSC02215 | 2.47e5 | 2.51e5 | 1.50e6 | 1.33e6 | inactive |
| CG13117 | DRSC26983 | 5.32e5 | 5.83e5 | 7.21e5 | 6.04e5 | inactive |
| Cyp6a13 (Cytochrome P450 6a13) | DRSC07375 | 5.59e5 | 6.26e5 | 1.13e6 | 1.31e6 | inactive |
| CG17224 | DRSC00489 | 95215 | 1.61e5 | 9.80e5 | 1.70e6 | inactive |
| Ciao1 | DRSC06170 | 1.19e6 | 1.35e6 | 1.93e6 | 1.95e6 | inactive |
| CG31802 | DRSC02459 | 2.17e5 | 1.95e5 | 2.39e6 | 1.99e6 | inactive |
| CG14177 (retired record) | DRSC10176 | 3.67e5 | 6.62e5 | 1.33e6 | 1.95e6 | inactive |
| CG14177 (retired record) | DRSC27883 | 8.62e5 | 5.44e5 | 2.36e6 | 1.71e6 | inactive |

Hits, among the entries above:
| Target gene | DRSC id | firefly reporter light, replicate 1 | firefly reporter light, replicate 2 | Renilla control light, replicate 1 | Renilla control light, replicate 2 | activity call |
| --- | --- | --- | --- | --- | --- | --- |
| CrebB (Cyclic-AMP response element binding protein B) | DRSC20232 | 1.02e5 | 55505 | 2.13e6 | 1.76e6 | active |
